# Source: PubChem BioAssay AID504834 (National Center for Advancing Translational Sciences (NCATS), 2011)
# The whole screen tested about 320,000 compounds, of which about 22,000 (6.9%) were called active. The inconclusive results got no clear call from the source; some entries with a clear call stand among them for comparison. The call rests on the fitted dose curve; in most records, active means well fitted inhibition curve with a large enough effect; inconclusive means small, poorly fitted or top-dose-only effect, or another doubt; inactive means no such curve, though single readings can be large or run the other way. Where the call is inconclusive, the potency comes from a doubtful curve fit.
# Test: Primary qHTS for delayed death inhibitors of the malarial parasite plastid, 96 hour incubation
# Conditions: P. falciparum luciferase reporter growth; series mostly up to 28.7 µM; activity change, negative = inhibition: at the top concentration
# Procedure, shortened: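 P. falciparum expressing integrated firefly luciferase grown in erythrocytes (2% hematocrit, 0.05% parasitemia final) with compounds for 96 hours at 37 C, 5% CO2. Growth inhibition read as loss of luminescence after adding luciferase detection reagent.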
# On the % scale 0 is the no-effect control and ±100 the full control effect; potency means the concentration at half of the fitted maximal effect.
Compound,Potency,"activity change, negative = inhibition"
Cc1ccsc1/C=N/NC(=O)c1ccc2ccccc2c1,"inconclusive: 11.7 µM [inhibitor, partial curve, poor fit]",–
CSc1ccccc1NC(=S)N/N=C/c1cccn1Cc1cccc(C)c1,"inconclusive: 2.94 µM [inhibitor, full curve, poor fit]",–
NC(=O)COC(=O)c1ccc(Cl)c(S(=O)(=O)N(Cc2ccccc2)c2ccc(Cl)cc2)c1,"inconclusive: 18.5 µM [inhibitor, single point]",–
COc1ccc(Cl)cc1NC(=O)CN(C)C(=O)c1cc2ccccc2cc1O,"inconclusive: 18.5 µM [inhibitor, single point]",–
CCN(CC)S(=O)(=O)c1ccc(OCC2CCCCO2)c([N+](=O)[O-])c1 (centres undefined),"inconclusive: 1.85 µM [inhibitor, full curve]",–
CC(C)C(NS(=O)(=O)c1ccc2c(c1)OCCCO2)C(=O)O (centres undefined),–,inactive: 34.4%
CCOC(=O)C(CC)n1cnc2c(nnn2-c2ccc(OC)cc2)c1=O (centres undefined),–,inactive: 47.2%
COc1ccc(C(=O)Cn2nnc(-c3ccccc3F)n2)cc1,–,inactive: 45.8%
CC1(C)Nc2ccc(O)cc2-c2c1ssc2=S,active: 8.28 µM,–
O=C(NN=C1CCCCC1)NC1CCCCC1,"inconclusive: 18.5 µM [inhibitor, single point]",–
COc1ccc(C(=O)Nc2cccc3c2C(=O)NC3=O)cc1S(=O)(=O)N1CCOCC1,"inconclusive: 0.0029 µM [inhibitor, full curve, poor fit]",–
CC(=O)Nc1ccc(NC(=O)CSc2nnc(CC(C)O)n2-c2ccccc2)cc1 (centres undefined),"inconclusive: 18.5 µM [inhibitor, single point]",–
CCCC(=O)NC(c1ccccc1)c1ccc2cccnc2c1O (centres undefined),"inconclusive: 18.5 µM [inhibitor, single point]",–
Cc1cccc(N(C(=O)CCC(=O)Nc2cc(C)on2)C(C(=O)NC2CCCC2)c2ccccc2)c1 (centres undefined),"inconclusive: 7.38 µM [inhibitor, partial curve, poor fit]",–
c1ccc(Sc2ncnc3ccccc23)cc1,"inconclusive: 13.1 µM [inhibitor, partial curve, poor fit]",–
O=S(=O)(Nc1ccc(-c2csc(-c3ccccc3)n2)cc1)c1ccccc1,active: 0.657 µM,–
O=C1CC[C@H](O)CCN1[C@H](CSc1ccccc1)Cc1ccccc1,"inconclusive: 18.5 µM [inhibitor, single point]",–
COc1ccc(Cl)cc1NC(=O)COC(=O)c1c(-c2ccccc2)noc1C,"inconclusive: 18.5 µM [inhibitor, single point]",–
COc1cccc(CN(C(=O)c2ccccc2Cl)C2CCS(=O)(=O)C2)c1 (centres undefined),–,inactive: 25.7%
O=C(/C(=C/c1ccncc1)n1ccnc1)c1ccc(Cl)cc1Cl,"inconclusive: 1.85 µM [inhibitor, partial curve, poor fit]",–
C#CCO[C@@H]1C[C@H](n2cnc3c(NC(=O)c4ccccc4)ncnc32)O[C@@H]1CO,–,inactive: 98.9%
Nc1nnc2c(C(F)(F)F)nc3ccccc3n12,–,inactive: 37.9%
O=C(OCCOc1ccccc1)c1n[nH]c2ccccc12,–,inactive: 180%
Cc1ccc(NC(=O)C2CC(=O)N(Cc3ccccc3)C2)nc1 (centres undefined),"inconclusive: 18.5 µM [inhibitor, single point]",–
CCc1nnc(NC(=O)c2cccc(S(=O)(=O)N3CCN(C(C)=O)CC3)c2)s1,"inconclusive: 11.7 µM [inhibitor, single point]",–

# A second format for some results above:
Compound | Potency | activity change, negative = inhibition
COc1ccc(C(=O)Cn2nnc(-c3ccccc3F)n2)cc1 | – | inactive: 45.8%
CC1(C)Nc2ccc(O)cc2-c2c1ssc2=S | active: 8.28 µM | –
O=C(NN=C1CCCCC1)NC1CCCCC1 | inconclusive: 18.5 µM [inhibitor, single point] | –
COc1ccc(C(=O)Nc2cccc3c2C(=O)NC3=O)cc1S(=O)(=O)N1CCOCC1 | inconclusive: 0.0029 µM [inhibitor, full curve, poor fit] | –
CC(=O)Nc1ccc(NC(=O)CSc2nnc(CC(C)O)n2-c2ccccc2)cc1 (centres undefined) | inconclusive: 18.5 µM [inhibitor, single point] | –
CCCC(=O)NC(c1ccccc1)c1ccc2cccnc2c1O (centres undefined) | inconclusive: 18.5 µM [inhibitor, single point] | –
Cc1cccc(N(C(=O)CCC(=O)Nc2cc(C)on2)C(C(=O)NC2CCCC2)c2ccccc2)c1 (centres undefined) | inconclusive: 7.38 µM [inhibitor, partial curve, poor fit] | –
c1ccc(Sc2ncnc3ccccc23)cc1 | inconclusive: 13.1 µM [inhibitor, partial curve, poor fit] | –
O=S(=O)(Nc1ccc(-c2csc(-c3ccccc3)n2)cc1)c1ccccc1 | active: 0.657 µM | –
O=C1CC[C@H](O)CCN1[C@H](CSc1ccccc1)Cc1ccccc1 | inconclusive: 18.5 µM [inhibitor, single point] | –
COc1ccc(Cl)cc1NC(=O)COC(=O)c1c(-c2ccccc2)noc1C | inconclusive: 18.5 µM [inhibitor, single point] | –
COc1cccc(CN(C(=O)c2ccccc2Cl)C2CCS(=O)(=O)C2)c1 (centres undefined) | – | inactive: 25.7%
O=C(/C(=C/c1ccncc1)n1ccnc1)c1ccc(Cl)cc1Cl | inconclusive: 1.85 µM [inhibitor, partial curve, poor fit] | –
C#CCO[C@@H]1C[C@H](n2cnc3c(NC(=O)c4ccccc4)ncnc32)O[C@@H]1CO | – | inactive: 98.9%
Nc1nnc2c(C(F)(F)F)nc3ccccc3n12 | – | inactive: 37.9%
O=C(OCCOc1ccccc1)c1n[nH]c2ccccc12 | – | inactive: 180%

# Later entries.

Compound,Potency,"activity change, negative = inhibition"
CCCCC(CC)C(=O)Nc1cc(C(=O)NCCC)ccc1N1CCC2(CC1)CC(c1cccc(Br)c1)=NO2 (centres undefined),active: 2.62 µM,–
CC(C)CNC(=O)c1ccccc1NC(=O)CCSc1ccccc1,"inconclusive: 18.5 µM [inhibitor, single point]",–
COc1ccc(N2CCN(C(CNC(=O)C3CCCCC3)c3cccnc3)CC2)cc1 (centres undefined),"inconclusive: 10.4 µM [inhibitor, partial curve, poor fit]",–
N#Cc1ccc(-c2ccc(OCC(O)CN3CCCCC3)cc2)cc1 (centres undefined),"inconclusive: 18.5 µM [inhibitor, single point]",–
Cc1noc(C)c1S(=O)(=O)N1CCCCC1,–,inactive: 10.5%
O=C(CC1Sc2ccccc2NC1=O)Nc1cccc(-c2nnc3n2CCCCC3)c1 (centres undefined),active: 13.1 µM,–
CCO[C@@H]1OC(C(=O)N2CCN(Cc3ccccc3)CC2)=C[C@H](c2cn(C(C)=O)c3ccccc23)[C@H]1CCCO,active: 8.28 µM,–
CC(=O)c1ccc(NC(=O)c2ccc3nc(C)sc3c2)cc1,–,inactive: 31.1%
CCN1CCN(C(=O)c2ccc(N3CC4CC(C3)c3cccc(=O)n3C4)c([N+](=O)[O-])c2)CC1 (centres undefined),"inconclusive: 18.5 µM [inhibitor, single point]",–
COc1ccc(S(=O)(=O)N(CCc2ccccc2)CC(=O)N/N=C/c2ccc3c(c2)OCO3)cc1,"inconclusive: 18.5 µM [inhibitor, single point]",–
CCn1c(SCC(=O)C(C)(C)C)nnc1-c1ccccc1OC,"inconclusive: 1.04 µM [inhibitor, partial curve, poor fit]",–
COc1cccc(C2N(c3ccccc3)CCN2c2ccccc2)c1OC,–,inactive: 8.57%
Cc1ccc(CN2CCN(/N=C/c3cccs3)CC2)cc1,"inconclusive: 16.5 µM [inhibitor, single point]",–
Cc1nc(C(=O)NCc2ccccc2)sc1C1(C)CC(c2cccc([N+](=O)[O-])c2)=NO1 (centres undefined),"inconclusive: 9.28 µM [inhibitor, single point]",–
Cc1ccc(-c2nc(C(=O)NCCCN3CCOCC3)cc3c2[nH]c2ccccc23)cc1,active: 6.57 µM,–
Cc1ccccc1-n1nnnc1SC(C)C(=O)Nc1ccc(N2CCN(C)CC2)cc1 (centres undefined),"inconclusive: 0.0033 µM [inhibitor, full curve, poor fit]",–
COC(=O)CSc1nc(C)c(C(C)=O)cc1C#N,–,inactive: 57%
CN(CC(=O)NCCCc1ccccc1)S(=O)(=O)c1ccc(Br)cc1,"inconclusive: 4.65 µM [inhibitor, single point]",–
CC(C)c1ccc2c(c1)C1Cc3ccccc3C1N2 (centres undefined),"inconclusive: 3.29 µM [inhibitor, full curve, poor fit]",–
CCc1ccc(/C(C)=N\Nc2ccc([N+](=O)[O-])cc2)cc1,active: 4.15 µM,–
CCOC(=O)C1CCN(S(=O)(=O)c2c(C)[nH]c(C)c2C(=O)N2CCCCC2)CC1,–,inactive: 4.42%
NC(=O)c1ccc[n+](CC(=O)c2ccccc2)c1,–,inactive: -2.36%
O=C(NCc1ccccc1)c1ccc2c(c1)OCCO2,–,inactive: 36%
Cc1cc(C)n2nc(SCC(=O)c3c(N)n(CC(C)C)c(=O)n(C)c3=O)nc2n1,"inconclusive: 0.37 µM [inhibitor, full curve]",–
Cc1c(C(=O)/C=C/N(C)C)nnn1-c1ccc(Cl)c(Cl)c1,–,inactive: 25.7%

Compound,Potency,"activity change, negative = inhibition"
CCOc1ccc(S(=O)(=O)N2CCC(C(=O)N3CCc4ccccc4C3)CC2)cc1,active: 2.94 µM,–
Cc1ccc(-c2nnn(CC(=O)N(Cc3ccco3)C(C(=O)NC3CCCC3)c3cccs3)n2)o1 (centres undefined),"inconclusive: 11.7 µM [inhibitor, single point]",–
NC(=O)CCC(NS(=O)(=O)c1ccc(Cl)cc1)C(=O)NCc1ccccc1 (centres undefined),–,inactive: -16.5%
CC(C)(C)C1CCC(=NNC(=O)CN(c2ccccc2)S(C)(=O)=O)CC1 (centres undefined),–,inactive: 1.52%
COc1ccc(C(=O)NC(=S)Nc2ccc(CN3CCOCC3)cc2)cc1,"inconclusive: 18.5 µM [inhibitor, single point]",–
CCN(CC)S(=O)(=O)c1ccc(Cl)c(NC(=O)COC(=O)c2ccc([N+](=O)[O-])o2)c1,"inconclusive: 11.7 µM [inhibitor, single point]",–
O=C1CCCC(=O)C1CS(=O)(=O)c1ccccc1,–,inactive: -9.77%
Cc1cc(C(=O)CSc2nnc(-c3ccncc3)n2-c2ccccc2)c(C)n1C,active: 16.5 µM,–
O=C1C(=O)N(CCCn2ccnc2)C(c2cccc(Br)c2)/C1=C(\O)c1ccc2c(c1)OCCO2 (centres undefined),"inconclusive: 16.5 µM [inhibitor, single point]",–
CCN1CCCC1CN(Cc1cc2ccc(C)cc2[nH]c1=O)C(=S)Nc1ccccc1OC (centres undefined),–,inactive: 45.5%
CC(=O)Oc1ccc2occ(/C=N/c3cc(=O)[nH]c(=S)[nH]3)c(=O)c2c1,"inconclusive: 0.738 µM [inhibitor, full curve, poor fit]",–
Cc1ccc(/C=N\NC(=O)c2ccc3c(c2)OCO3)o1,active: 1.31 µM,–
Cc1nn(C)cc1C1Nc2ccccc2C(=O)N1O (centres undefined),–,inactive: -12.7%
CC1(C)C=Cc2cc3ccc(=O)oc3cc2O1,"inconclusive: 18.5 µM [inhibitor, single point]",–
O=C1CC(Cc2ccc(Cl)cc2)C(=O)N1c1ccncc1 (centres undefined),"inconclusive: 16.5 µM [inhibitor, single point]",–
CCOc1ccc(NC(=O)C2CCCN(C)C2)cc1 (centres undefined),–,inactive: 58.2%
CCN(c1ccc(OC)cc1)S(=O)(=O)c1csc(C(N)=O)c1,"inconclusive: 18.5 µM [inhibitor, single point]",–
Cn1c(=O)c([N+](=O)[O-])c(NCc2ccccc2)c2ccccc21,active: 8.28 µM,–
CCCC(=O)NC(=S)Nc1cccc(C(C)=O)c1,–,inactive: 20.1%
CCC1CCCCN1C(=S)NC(=O)c1cccs1 (centres undefined),"inconclusive: 18.5 µM [inhibitor, single point]",–
Cc1csc(/C(C#N)=N/O)n1,"inconclusive: 5.22 µM [inhibitor, partial curve, poor fit]",–
O=C1C(=Cc2ccco2)C(=O)c2ccccc21,active: 16.5 µM,–
Cc1cc(=O)n2c(n1)NC(Nc1cccc(C)c1C)=NC2c1ccccc1 (centres undefined),–,inactive: 19.5%
O=C(Nc1ccc(F)cc1F)c1cc2nc3c(c(C(F)(F)F)n2n1)CCCC3,active: 10.4 µM,–
